Sequences of proteins named here, by UniProt entry; tags and fusion partners are left off. A change or cut given only in a name is not applied to a line headed by its entry.
UniProt P42225: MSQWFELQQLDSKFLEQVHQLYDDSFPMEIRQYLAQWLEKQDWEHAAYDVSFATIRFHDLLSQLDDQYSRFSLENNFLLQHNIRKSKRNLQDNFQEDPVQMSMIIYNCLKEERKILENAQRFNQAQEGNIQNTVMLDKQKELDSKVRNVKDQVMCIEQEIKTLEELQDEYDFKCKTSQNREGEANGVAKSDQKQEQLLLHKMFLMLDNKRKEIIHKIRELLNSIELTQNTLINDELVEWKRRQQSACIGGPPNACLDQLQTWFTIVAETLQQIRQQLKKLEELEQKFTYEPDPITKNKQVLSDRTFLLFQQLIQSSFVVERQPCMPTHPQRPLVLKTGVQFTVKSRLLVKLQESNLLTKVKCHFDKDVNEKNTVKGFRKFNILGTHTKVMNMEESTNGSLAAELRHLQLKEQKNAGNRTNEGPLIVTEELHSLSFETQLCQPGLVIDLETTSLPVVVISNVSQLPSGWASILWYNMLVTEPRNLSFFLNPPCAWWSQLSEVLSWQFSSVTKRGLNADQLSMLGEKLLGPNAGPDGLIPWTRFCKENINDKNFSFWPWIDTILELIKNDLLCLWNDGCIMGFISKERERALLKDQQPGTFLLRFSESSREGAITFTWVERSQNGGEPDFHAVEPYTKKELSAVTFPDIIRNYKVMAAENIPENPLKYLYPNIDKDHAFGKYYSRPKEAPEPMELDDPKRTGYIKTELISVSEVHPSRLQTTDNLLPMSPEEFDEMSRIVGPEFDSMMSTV
UniProt P42227, whole entry: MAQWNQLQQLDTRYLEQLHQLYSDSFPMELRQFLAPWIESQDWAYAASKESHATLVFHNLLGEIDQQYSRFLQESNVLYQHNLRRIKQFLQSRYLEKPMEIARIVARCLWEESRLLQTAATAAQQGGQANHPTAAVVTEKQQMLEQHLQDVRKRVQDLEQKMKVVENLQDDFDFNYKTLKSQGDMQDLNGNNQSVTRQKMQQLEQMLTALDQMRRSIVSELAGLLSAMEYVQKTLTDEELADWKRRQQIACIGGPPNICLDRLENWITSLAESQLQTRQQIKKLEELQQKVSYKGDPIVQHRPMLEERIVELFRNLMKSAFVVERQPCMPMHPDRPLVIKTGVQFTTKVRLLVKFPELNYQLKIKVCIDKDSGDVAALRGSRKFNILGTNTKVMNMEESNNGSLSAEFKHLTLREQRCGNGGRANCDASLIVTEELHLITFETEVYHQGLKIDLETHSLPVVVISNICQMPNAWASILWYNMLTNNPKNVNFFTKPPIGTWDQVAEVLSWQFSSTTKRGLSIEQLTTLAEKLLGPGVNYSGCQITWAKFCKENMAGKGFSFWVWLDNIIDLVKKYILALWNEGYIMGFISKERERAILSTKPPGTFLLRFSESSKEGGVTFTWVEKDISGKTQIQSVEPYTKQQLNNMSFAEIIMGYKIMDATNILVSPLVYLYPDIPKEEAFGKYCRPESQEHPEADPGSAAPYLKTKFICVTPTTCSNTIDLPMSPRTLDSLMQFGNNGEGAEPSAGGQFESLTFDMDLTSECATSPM

In article PMC2477742:

Key:
[1] = biological target: STAT1 (IFN-gamma-activated, phosphorylated) (UniProt P42225); experiment: EMSA supershift; details: IFN-gamma 30 min, 13.3 mM Hepes pH 7.6, 0.7 mM EDTA, 3.3 mM MgCl2, 34 mM KCl, 1 mM DTT, 10% glycerol, 0.5 ug poly(dI-dC), on ice 15 min, 5% PAGE in 0.25x TBE, protein in an extract, label: 32P (alpha-32P dATP end-labelling)
[2] = biological target: STAT3 (IL-6-activated, phosphorylated) (mouse (NIH 3T3 cells)) (UniProt P42227); experiment: EMSA supershift; details: NIH 3T3 nuclear extract, IL-6 30 min; 13.3 mM Hepes pH 7.6, 0.7 mM EDTA, 3.3 mM MgCl2, 34 mM KCl, 1 mM DTT, 10% glycerol, 0.5 ug poly(dI-dC), on ice 15 min; 5% PAGE in 0.25x TBE; protein in an extract; label: 32P (alpha-32P dATP end-labelling)

Measured: binding result

GATCTAGGGATTTCCGGGAAATGAAGCT (double strand) [M67 (c-sis-inducible element probe)]
binds: [1]; NIH 3T3 nuclear extract | [1]; NIT nuclear extract | [2]

Construct, isoform or probe ends are uncertain for at least one entry. At least one result comes from cells or an extract, where the contact may be indirect.
